# Assay results

By UniProt entry, the sequences of proteins in these tests, tags left out.
UniProt P04062, whole entry, target on record: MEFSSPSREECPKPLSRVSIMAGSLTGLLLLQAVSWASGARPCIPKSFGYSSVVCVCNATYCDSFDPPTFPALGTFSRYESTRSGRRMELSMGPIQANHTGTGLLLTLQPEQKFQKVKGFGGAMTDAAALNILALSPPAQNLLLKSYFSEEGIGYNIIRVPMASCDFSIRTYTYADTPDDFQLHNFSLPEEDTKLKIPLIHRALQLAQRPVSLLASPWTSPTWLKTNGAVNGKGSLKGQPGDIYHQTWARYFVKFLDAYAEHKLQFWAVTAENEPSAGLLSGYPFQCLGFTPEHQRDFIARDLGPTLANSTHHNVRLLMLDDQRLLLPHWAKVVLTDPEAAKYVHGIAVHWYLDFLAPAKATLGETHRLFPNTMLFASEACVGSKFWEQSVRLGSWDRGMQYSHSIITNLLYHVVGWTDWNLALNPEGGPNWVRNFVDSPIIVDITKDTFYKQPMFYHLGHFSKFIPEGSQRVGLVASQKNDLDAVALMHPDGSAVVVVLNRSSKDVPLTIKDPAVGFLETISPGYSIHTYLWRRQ

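Cleavage of a resorufin-linked glucose substrate by isolated lysosomal acid glucosylceramidase was followed by fluorescence over a 20-minute room-temperature incubation.
Each compound was run as a titration series spanning about 0.6 nM up to 50 µM final.
The number is the fitted half-maximal concentration (AC50); a lower value means a more potent inhibitor.
The record treats a '>' qualifier as no measurable activity (inactive); no explicit numeric cut-off is stated.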

Values are in µM.
Every entry below has the call inactive.
Only inactive entries are shown; hits are left out here.

compound	fitted potency (µM)
O=C1c2ccccc2C(=O)N1CCc1nc(-c2cccnc2)no1	>76.9
O=C(C1=C(O)C(=O)N(CC2CCCO2)C1c1cccnc1)c1ccco1 (stereo not given)	>76.9
Cc1ccc(N(O)C(=O)OCCNC(=O)Nc2ccccc2)cc1	>76.9
COC(=O)c1ccc(Cl)c(NC(C)=O)c1	>76.9
c1ccc(-n2nnnc2Oc2ccc(-c3nnco3)cc2)cc1	>76.9
O=c1c2ccccc2nc2n1CC/C2=C/N1CCN(c2cccc(C(F)(F)F)c2)CC1	>76.9
CN(Cc1ccccc1)c1nc2c(c(=O)[nH]c(=O)n2C)n1CCCc1ccccc1	>76.9
CCOC(=O)C1CCN(C(=O)c2ccc(OCC)c(OCC)c2)CC1	>76.9
CCC(CC)C(=O)NCCc1ccc(S(N)(=O)=O)cc1	>76.9
CC(=O)NC1N=C(C)N(c2ccccc2)C1=O (stereo not given)	>76.9
CCN1CCN(C(c2cccs2)C(C)NC(=O)CC(C)C)CC1 (stereo not given)	>76.9
CN1CCN(c2nc(-c3cccs3)cc(C(F)(F)F)n2)CC1	>76.9
COc1ccc(C2(C(=O)Nc3ccc(C(=O)N4CCOCC4)cc3)CCOCC2)cc1	>76.9
CCc1nccn1S(=O)(=O)c1ccc(C)c(C)c1	>76.9
O=C(CCc1nc(-c2ccccc2F)no1)NCCc1ccccc1Cl	>76.9
CCOC(=O)C1CCCN(CC(=O)Nc2c(C(=O)OC)[nH]c3ccc(Br)cc23)C1 (stereo not given)	>76.9
N#Cc1cnc(SCC(=O)c2ccccc2)nc1N	>76.9
COCc1cc(C)nc(Nc2ccccc2C)c1C#N	>76.9
COC(=O)c1cc2oc3ccccc3c2n1CC(=O)Nc1ccccc1OC	>76.9
Cc1ccc(CCNC(=O)C2CCN(S(=O)(=O)N3CCC4(CC3)OCCO4)CC2)cc1	>76.9
CCn1cnc2c1c(=O)n(CC(=O)N1CCc3ccccc31)c(=O)n2Cc1ccccc1	>76.9
Cc1ccc(C)c(Cn2nnc3c(=O)[nH]c(C(=O)NCC4CCCO4)nc32)c1 (stereo not given)	>76.9
c1cncc(-c2nn3c(Cn4cnc5ccccc54)nnc3s2)c1	>76.9
O=C(NCc1ccc2c(c1)OCO2)C1CCN(S(=O)(=O)c2cccs2)CC1	>76.9
Cn1c(SCC(=O)Nc2ccc3c(c2)OCCO3)nnc1-c1ccco1	>76.9
CC(CN1CCCCC1)OC(=O)Cc1ccc(Cl)cc1 (stereo not given)	>76.9
Cc1ccc(C)c(SCC(=O)OCC(=O)c2ccco2)c1	>76.9
Cc1nc(SCC#N)c2c(C)c(C)sc2n1	>76.9
O=C(CNCC1CCCO1)Nc1ccccc1-n1cccc1 (stereo not given)	>76.9
Cc1ccc(Cc2cnc(N)s2)o1	>76.9
CCN(CCCNC(=O)CN(C)S(=O)(=O)c1cccc2nsnc12)c1ccccc1	>76.9
Cc1nc2c(s1)sc1ccccc12	>76.9
COc1ccc(NC(=O)CN2CCC3(O)CCCCC3C2c2cc(OC)ccc2OC)cc1 (stereo not given)	>76.9
CCn1c(SCC(=O)NCCOC)nc2sc(C)c(C)c2c1=O	>76.9
CCOc1ccccc1Oc1ccc(C(F)(F)F)cn1	>76.9
COC(=O)c1cccc(NC(=O)CN2CCN(Cc3ccccc3)CC2)c1	>76.9
CC1=C(C(=O)Nc2ccccc2)C(c2ccc(C)o2)n2c(s/c(=C\c3ccco3)c2=O)=N1 (stereo not given)	>76.9
O=C(CSc1nccn1-c1ccccc1)N1CCc2ccccc21	>76.9
Cc1ccc(N(C(=O)CNC(=O)c2ccco2)C(C(=O)NCC2CCCO2)c2ccccc2)cc1 (stereo not given)	>76.9
N#CCCCCn1c(-c2cncs2)nc2ccccc21	>76.9
O=c1ccc(Oc2nc(N3CCCCC3)nc(N3CCCCC3)n2)n[nH]1	>76.9
Cn1c(C(O)c2ccc(Cl)cc2)nc(Cl)c1Cl (stereo not given)	>76.9
CCOC(=O)C1CCN(C(=O)CCn2c(=O)[nH]c3ccsc3c2=O)CC1	>76.9
COC(=O)CNC(=O)C1CCCN1C(=O)OC(C)(C)C (stereo not given)	>76.9
CCOC(=O)CN1C(=O)C(O)(C2CCc3ccccc3C2=O)c2ccccc21 (stereo not given)	>76.9
COc1ccc(S(=O)(=O)NCC2CCC(C(=O)NCc3ccco3)CC2)cc1 (stereo not given)	>76.9
Cc1ccc(C(=O)N2CCN(C)CC2)cc1S(=O)(=O)N1CCCCC1	>76.9
O=S(=O)(Nc1ncn[nH]1)c1ccc2ccccc2c1	>76.9
O=C(NCCCN1CCCC1=O)c1cccc(C(F)(F)F)c1	>76.9
Cc1ccc(C(=O)NCCCN2CCOCC2)cc1N1CCCC1=O	>76.9
COC(=O)C(Cc1cnc[nH]1)NC(=O)C1CCC(=O)N1 (stereo not given)	>76.9
CCOC(=O)C1=C(N)N(c2ccc(N3CCCCC3)cc2)C(=O)C1	>76.9
O=C(c1cccc(F)c1)N1CCN(C(=O)c2cc(-c3ccc(Cl)cc3Cl)on2)CC1	>76.9
CCN(Cc1ccccc1)C(=O)CCc1nc(-c2ccc(C)cc2)no1	>76.9
Cc1c(Br)cc(C(=O)O)c(C)c1C	>76.9
Cc1cc(NC(=O)c2cc(-c3cccc(Cl)c3)on2)no1	>76.9
O=C(Nc1ccc(-c2nnco2)cc1)c1ccccc1	>76.9
O=C(NCCCN1CCCC1=O)c1csc2ccccc12	>76.9
CCc1cc2cc3c(cc2nc1SCC(=O)Nc1cc(C)on1)OCO3	>76.9
O=C(OCn1nnc2ccccc2c1=O)C1CCCCC1	>76.9
CN1CCc2ccccc2C1C1CCNCC1 (stereo not given)	>76.9
O=C(COC(=O)c1ccccn1)Nc1ncc(C(F)(F)F)cc1Cl	>76.9
Cc1nc2ccccc2c2nc(NC(=O)Cc3ccccc3)nn12	>76.9
COc1ccc(-c2nn3c(-c4ccccc4)nnc3s2)cc1OC	>76.9
CC(C(=O)NCC1CCCO1)N(C(=O)c1snc(C(N)=O)c1N)c1ccccc1 (stereo not given)	>76.9
CCOC(=O)CSc1nc(N)c(C#N)c(CC(C)C)c1C#N	>76.9
Cc1ccc(CSc2nnnn2C)cc1	>76.9
CC(=O)c1cccc(N(CC(=O)NCC2CCCO2)C(=O)CCC(=O)Nc2cc(C)on2)c1 (stereo not given)	>76.9
Cc1ccc(-c2noc(CN(C(=O)CCN3C(=O)c4ccccc4C3=O)C(C)C)n2)cc1	>76.9
CCCC(=O)NCCc1cc2ccc(OC)cc2[nH]c1=O	>76.9
CC(C)(C)NC(=O)C1CCN(C(=O)c2ccc(Br)cc2)CC1	>76.9
O=C(NCc1ccco1)C1OCCc2ccccc21 (stereo not given)	>76.9
CC12CCC(C(=O)Nc3cccnc3)(CC1=O)C2(C)C (stereo not given)	>76.9
COc1ccc(-c2nnc3c4ccccc4c(C)nn23)cc1S(=O)(=O)N1CCN(CCO)CC1	54
O=C(CCn1nnc2ccccc2c1=O)NCC1CCC(C(=O)O)CC1 (stereo not given)	>76.9
CC(C)C(NC(=O)c1ccccc1)C(=O)NC1=NCCS1 (stereo not given)	>76.9
COCC(C)n1c(C)cc(C(=O)Cn2c(=O)oc3ccccc32)c1C (stereo not given)	>76.9
CCOC(=O)C1C(=O)C=C(c2cccc(NS(C)(=O)=O)c2)CC1c1ccco1 (stereo not given)	69.4
Nc1nc(-c2cccs2)c(NC(=O)c2ccccc2)s1	>76.9
CCc1ccccc1NC(=O)CSc1nc2ccccc2n1CC(=O)N(C)C	>76.9
CCC(=O)Nc1nc2ccccc2n1Cc1ccccc1	>76.9
Cc1cc(C)nc(N2CCC(C(=O)NCCc3ccccc3)CC2)n1	>76.9

For reference, 9 entries once more:

{"compound": "O=C(CNCC1CCCO1)Nc1ccccc1-n1cccc1", "stereo": "stereo not given", "fitted potency (µM)": ">76.9"}
{"compound": "CCn1cnc2c1c(=O)n(CC(=O)N1CCc3ccccc31)c(=O)n2Cc1ccccc1", "fitted potency (µM)": ">76.9"}
{"compound": "CCN(CCCNC(=O)CN(C)S(=O)(=O)c1cccc2nsnc12)c1ccccc1", "fitted potency (µM)": ">76.9"}
{"compound": "CC(=O)NC1N=C(C)N(c2ccccc2)C1=O", "stereo": "stereo not given", "fitted potency (µM)": ">76.9"}
{"compound": "Cc1cc(NC(=O)c2cc(-c3cccc(Cl)c3)on2)no1", "fitted potency (µM)": ">76.9"}
{"compound": "O=C(NCc1ccco1)C1OCCc2ccccc21", "stereo": "stereo not given", "fitted potency (µM)": ">76.9"}
{"compound": "c1cncc(-c2nn3c(Cn4cnc5ccccc54)nnc3s2)c1", "fitted potency (µM)": ">76.9"}
{"compound": "Cc1ccc(CSc2nnnn2C)cc1", "fitted potency (µM)": ">76.9"}
{"compound": "CCc1ccccc1NC(=O)CSc1nc2ccccc2n1CC(=O)N(C)C", "fitted potency (µM)": ">76.9"}

Source: PubChem BioAssay AID360 (NCATS, 2006).